These results are taken from publication PMC6127989, “Cytosolic GAPDH as a redox-dependent regulator of energy metabolism” (BMC Plant Biology, 2018).

Sequences of proteins named here, by UniProt entry; tags and fusion partners are left off.
UniProt P25858: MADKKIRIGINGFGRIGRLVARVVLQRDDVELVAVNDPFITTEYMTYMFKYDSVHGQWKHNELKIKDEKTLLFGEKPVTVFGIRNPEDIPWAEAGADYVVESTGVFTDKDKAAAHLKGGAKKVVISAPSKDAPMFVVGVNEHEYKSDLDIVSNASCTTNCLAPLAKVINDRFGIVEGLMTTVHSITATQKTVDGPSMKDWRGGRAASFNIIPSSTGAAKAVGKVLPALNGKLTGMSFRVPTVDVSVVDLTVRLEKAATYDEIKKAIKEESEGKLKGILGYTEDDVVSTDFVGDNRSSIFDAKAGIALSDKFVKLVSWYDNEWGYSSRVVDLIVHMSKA
UniProt Q9FX54: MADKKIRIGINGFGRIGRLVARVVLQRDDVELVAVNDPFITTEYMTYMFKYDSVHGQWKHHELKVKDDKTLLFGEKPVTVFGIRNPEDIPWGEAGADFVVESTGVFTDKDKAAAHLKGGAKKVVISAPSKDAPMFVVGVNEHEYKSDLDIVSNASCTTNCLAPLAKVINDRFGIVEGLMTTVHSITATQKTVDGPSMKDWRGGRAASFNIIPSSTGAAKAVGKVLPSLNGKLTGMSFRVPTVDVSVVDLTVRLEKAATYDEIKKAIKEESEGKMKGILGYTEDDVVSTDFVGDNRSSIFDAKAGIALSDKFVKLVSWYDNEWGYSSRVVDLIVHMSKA

Test [1] addresses GapC1-YFPNE (GapC1 fused to the N-terminal half of YFP) (A. thaliana) (UniProt P25858). Put plainly: split reporter; split-YFP in transiently co-transformed Arabidopsis mesophyll protoplasts, 16 h at 22 °C; treated with DTT, 0.2 mM H2O2 or 0.05 mM GSNO before confocal microscopy; bZip63-mCherry as nuclear marker.
Test [2] concerns the target GapC2-YFPNE (GapC2 fused to the N-terminal half of YFP) (A. thaliana) (UniProt Q9FX54). Described as above.

No constants are given. Whether binding was seen depends on the method and setting. In cells and extracts the contact can be indirect. Some binding calls cover weakened binding; strength is not graded here. Tags and fused reporters may be left off the sequences shown.

B1: recombinant thioredoxin Trx-h3 from A. thaliana (natural protein, UniProt Q42403 1-118, looked up)
chain: MAAEGEVIACHTVEDWTEKLKAANESKKLIVIDFTATWCPPCRFIAPVFADLAKKHLDVVFFKVDVDELNTVAEEFKVQAMPTFIFMKEGEIKETVVGAAKEEIIANLEKHKTVVAAA
notes: Thioredoxin h3 (Trx-h3), Arabidopsis thaliana
As for B1, the binding entry in test [1] and in test [2] was “binds” in each case.
